Assay results

The results are deposited in PubChem (AID504749; NCATS, 2011).

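Malaria parasite (P. falciparum) lines kept in red blood cells; parasite DNA is measured by SYBR Green fluorescence after lysis, 72 h after compound addition. Each compound was titrated across a series from about 0.000037 to 29 µM. The number is the fitted AC50, the concentration giving a half-maximal change in signal; a lower value means higher potency, whether the curve shows a decrease or an increase. Calls follow the curve class and fit quality: every row here is inconclusive, covering signal-raising curves and weak, poorly fitted, partial or highest-dose-only inhibition curves.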

Values are in nM. All entries here are filed as inconclusive. These entries are mostly ones the record files as inconclusive; other results of the assay are not listed here. Potencies fitted to partial, single-point or poorly fitting curves are rough.

SMILES | condition | potency (nM) | curve
Cn1cnc([N+](=O)[O-])c1Sc1ncnc2nc[nH]c12 | CP252 | 10000 | inhibitor, single point
c1ccc(C2(c3ccccc3)CC2C2=NCCN2)cc1 (centres unmarked) | CP191 | 11220 | inhibitor, single point
c1ccc(C2(c3ccccc3)CC2C2=NCCN2)cc1 (centres unmarked) | CP256 | 11220 | inhibitor, single point
c1ccc(C2(c3ccccc3)CC2C2=NCCN2)cc1 (centres unmarked) | DIV17 | 19011 | inhibitor, single point
c1ccc(C2(c3ccccc3)CC2C2=NCCN2)cc1 (centres unmarked) | DIV14 | 19011 | inhibitor, single point
c1ccc(C2(c3ccccc3)CC2C2=NCCN2)cc1 (centres unmarked) | CP286 | 17782 | inhibitor, single point
CO[C@H](C(=O)[C@@H](O)[C@@H](C)O)C1Cc2cc3cc(O[C@H]4C[C@@H](O[C@H]5C[C@@H](O)[C@H](O)[C@@H](C)O5)[C@@H](O)[C@@H](C)O4)c(C)c(O)c3c(O)c2C(=O)[C@H]1O[C@H]1C[C@@H](O[C@H]2C[C@@H](O[C@H]3C[C@](C)(O)[C@H](O)[C@@H](C)O3)[C@H](O)[C@@H](C)O2)[C@H](O)[C@@H](C)O1 (some centres unmarked) | JCK | 22.4 | inhibitor, full curve, poor fit
COc1cc(C(=O)OCCCN2CCCN(CCCOC(=O)c3cc(OC)c(OC)c(OC)c3)CC2)cc(OC)c1OC | CP211 | 16944 | inhibitor, single point
COc1cc(C(=O)OCCCN2CCCN(CCCOC(=O)c3cc(OC)c(OC)c(OC)c3)CC2)cc(OC)c1OC | PC49 | 10000 | inhibitor, single point
COc1cc(C(=O)OCCCN2CCCN(CCCOC(=O)c3cc(OC)c(OC)c(OC)c3)CC2)cc(OC)c1OC | CP325 | 19011 | inhibitor, single point
COc1cc(C(=O)OCCCN2CCCN(CCCOC(=O)c3cc(OC)c(OC)c(OC)c3)CC2)cc(OC)c1OC | C2A | 12589 | inhibitor, single point
COc1cc(C(=O)OCCCN2CCCN(CCCOC(=O)c3cc(OC)c(OC)c(OC)c3)CC2)cc(OC)c1OC | CP305 | 16944 | inhibitor, single point
COc1cc(C(=O)OCCCN2CCCN(CCCOC(=O)c3cc(OC)c(OC)c(OC)c3)CC2)cc(OC)c1OC | PC26 | 19011 | inhibitor, single point
COc1cc(C(=O)OCCCN2CCCN(CCCOC(=O)c3cc(OC)c(OC)c(OC)c3)CC2)cc(OC)c1OC | CP185 | 5623 | inhibitor, partial curve
COc1cc(C(=O)OCCCN2CCCN(CCCOC(=O)c3cc(OC)c(OC)c(OC)c3)CC2)cc(OC)c1OC | CP201 | 16944 | inhibitor, single point
COc1cc(C(=O)OCCCN2CCCN(CCCOC(=O)c3cc(OC)c(OC)c(OC)c3)CC2)cc(OC)c1OC | P94_40 | 10000 | inhibitor, single point
COc1cc(C(=O)OCCCN2CCCN(CCCOC(=O)c3cc(OC)c(OC)c(OC)c3)CC2)cc(OC)c1OC | HB3 | 10000 | inhibitor, single point
COc1cc(C(=O)OCCCN2CCCN(CCCOC(=O)c3cc(OC)c(OC)c(OC)c3)CC2)cc(OC)c1OC | PAD | 10000 | inhibitor, single point
COc1cc(C(=O)OCCCN2CCCN(CCCOC(=O)c3cc(OC)c(OC)c(OC)c3)CC2)cc(OC)c1OC | CP315 | 21331 | inhibitor, single point
COc1cc(C(=O)OCCCN2CCCN(CCCOC(=O)c3cc(OC)c(OC)c(OC)c3)CC2)cc(OC)c1OC | CP192 | 21331 | inhibitor, single point
COc1cc(C(=O)OCCCN2CCCN(CCCOC(=O)c3cc(OC)c(OC)c(OC)c3)CC2)cc(OC)c1OC | FAB9 | 11220 | inhibitor, single point
COc1cc(C(=O)OCCCN2CCCN(CCCOC(=O)c3cc(OC)c(OC)c(OC)c3)CC2)cc(OC)c1OC | CP291 | 16944 | inhibitor, single point

For reference, 2 entries once more:

| SMILES | condition | potency (nM) | curve |
|---|---|---|---|
| `COc1cc(C(=O)OCCCN2CCCN(CCCOC(=O)c3cc(OC)c(OC)c(OC)c3)CC2)cc(OC)c1OC` | CP305 | 16944 | inhibitor, single point |
| `COc1cc(C(=O)OCCCN2CCCN(CCCOC(=O)c3cc(OC)c(OC)c(OC)c3)CC2)cc(OC)c1OC` | HB3 | 10000 | inhibitor, single point |